Laboratory results as given in article PMC9604255, “Discovery of Simple Diacylhydrazine-Functionalized Cinnamic Acid Derivatives as Potential Microtubule Stabilizers” (International Journal of Molecular Sciences, 2022).

System: PC-3 cancer cells
Assay: MTT antiproliferative assay, PC-3
Assay type: cell-based
Details: Homo sapiens, 48 h, read-out: IC50 PC-3
Excerpt: An A549 (human non-small cell lung cancer cell line) cell line was purchased from the Shanghai Cell Bank of the Chinese Academy of Sciences; PC-3 (human prostate cancer cell line) cell line was donated by the Key Laboratory of Natural Product Chemistry of the Chinese Academy of Sciences of Guizhou Province; HepG2 (human liver cancer cell line) and NRK 52E (normal rat kidney cell line) cell line was donated by Guizhou Medical University; all cell lines were kept by the laboratory.
The antiproliferative activity of target compounds against A549, PC-3, HepG2, and NRK-52E were determined by MTT assay, as described in previous articles. The assay was recorded at 490 nm by an Infinite® M200 PRO multimode microplate (Tecan, Männedorf, Switzerland).

COc1cc2c(c(OC)c1OC)-c1ccc(OC)c(=O)cc1[C@@H](NC(C)=O)CC2 [Colchicine, reference compound]
IC50: 2.12 ± 0.29 µM
